## Library screen at single concentrations

The chains behind the UniProt entries cited, without tags or fusion partners.
UniProt I6X8D2, whole entry: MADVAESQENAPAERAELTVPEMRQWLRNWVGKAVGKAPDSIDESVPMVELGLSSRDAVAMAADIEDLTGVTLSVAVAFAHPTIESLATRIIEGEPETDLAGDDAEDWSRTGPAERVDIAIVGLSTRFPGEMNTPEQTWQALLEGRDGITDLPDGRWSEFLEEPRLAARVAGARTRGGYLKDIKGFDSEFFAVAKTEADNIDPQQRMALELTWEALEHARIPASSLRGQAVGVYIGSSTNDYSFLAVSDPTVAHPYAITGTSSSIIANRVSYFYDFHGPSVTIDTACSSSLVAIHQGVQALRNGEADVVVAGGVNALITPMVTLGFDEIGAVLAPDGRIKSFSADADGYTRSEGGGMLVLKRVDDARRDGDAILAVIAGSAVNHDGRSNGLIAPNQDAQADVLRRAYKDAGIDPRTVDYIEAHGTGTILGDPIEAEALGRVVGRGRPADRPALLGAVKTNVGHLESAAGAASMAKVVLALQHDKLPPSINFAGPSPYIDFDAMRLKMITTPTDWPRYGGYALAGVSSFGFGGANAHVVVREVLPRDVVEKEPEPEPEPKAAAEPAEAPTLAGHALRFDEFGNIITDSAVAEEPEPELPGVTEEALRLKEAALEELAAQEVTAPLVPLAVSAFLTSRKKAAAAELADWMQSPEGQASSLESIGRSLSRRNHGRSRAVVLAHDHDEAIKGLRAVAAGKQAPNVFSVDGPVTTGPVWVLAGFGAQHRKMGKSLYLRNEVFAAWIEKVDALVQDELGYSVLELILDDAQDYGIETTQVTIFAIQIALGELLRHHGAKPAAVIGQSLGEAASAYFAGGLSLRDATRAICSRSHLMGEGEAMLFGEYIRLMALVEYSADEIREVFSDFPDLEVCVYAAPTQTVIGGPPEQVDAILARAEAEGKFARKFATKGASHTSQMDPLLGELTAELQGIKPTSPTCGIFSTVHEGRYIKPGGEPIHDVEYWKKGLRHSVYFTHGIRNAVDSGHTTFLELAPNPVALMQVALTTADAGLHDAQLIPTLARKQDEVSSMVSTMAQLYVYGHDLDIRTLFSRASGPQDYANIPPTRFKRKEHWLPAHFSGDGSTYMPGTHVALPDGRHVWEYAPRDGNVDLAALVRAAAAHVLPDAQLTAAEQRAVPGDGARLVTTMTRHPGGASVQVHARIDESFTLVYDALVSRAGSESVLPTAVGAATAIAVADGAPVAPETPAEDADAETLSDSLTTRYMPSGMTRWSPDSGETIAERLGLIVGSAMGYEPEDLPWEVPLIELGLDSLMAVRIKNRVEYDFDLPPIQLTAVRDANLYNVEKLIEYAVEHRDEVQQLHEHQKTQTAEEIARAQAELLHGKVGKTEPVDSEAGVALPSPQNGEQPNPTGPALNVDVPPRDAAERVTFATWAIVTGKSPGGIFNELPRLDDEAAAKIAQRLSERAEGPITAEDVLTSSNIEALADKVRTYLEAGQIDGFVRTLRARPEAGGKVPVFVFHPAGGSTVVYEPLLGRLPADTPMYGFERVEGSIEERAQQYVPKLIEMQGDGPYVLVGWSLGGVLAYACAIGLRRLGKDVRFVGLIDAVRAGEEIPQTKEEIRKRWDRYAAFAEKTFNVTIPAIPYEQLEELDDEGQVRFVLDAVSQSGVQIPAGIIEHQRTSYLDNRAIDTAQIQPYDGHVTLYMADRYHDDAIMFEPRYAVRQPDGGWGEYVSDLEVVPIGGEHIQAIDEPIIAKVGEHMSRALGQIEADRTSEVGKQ
UniProt P9WPC5, whole entry: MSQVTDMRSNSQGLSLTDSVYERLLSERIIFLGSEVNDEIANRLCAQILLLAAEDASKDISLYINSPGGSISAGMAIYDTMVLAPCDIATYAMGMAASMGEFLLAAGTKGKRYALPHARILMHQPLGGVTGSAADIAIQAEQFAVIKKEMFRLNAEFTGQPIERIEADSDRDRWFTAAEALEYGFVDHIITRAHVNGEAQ
UniProt P9WPC3, whole entry partner: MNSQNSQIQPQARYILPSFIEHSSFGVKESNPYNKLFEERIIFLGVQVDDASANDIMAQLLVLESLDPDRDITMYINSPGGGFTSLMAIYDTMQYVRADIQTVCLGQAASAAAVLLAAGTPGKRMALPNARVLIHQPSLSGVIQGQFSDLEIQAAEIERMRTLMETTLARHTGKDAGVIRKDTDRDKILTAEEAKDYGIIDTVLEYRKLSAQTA

A: 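Cell assay of Leishmania donovani living inside macrophages; the read-out is not stated. Compounds at 30 µM. Higher reads as stronger inhibition (inferred: compounds with an IC50 in retests scored well above the rest). Of about 69,000 compounds tested this way, about 1,000 (1.5%) reached 50% or more in at least one test.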
B: 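Enzyme assay of the thioesterase domain of polyketide synthase 13; the read-out is not stated. Target: Polyketide synthase Pks13, Mycobacterium tuberculosis (UniProt I6X8D2). Tested at 30 µM. The record gives no direction; the compounds picked for IC50 retests had high values, so higher reads as stronger inhibition. About 67,000 compounds were tested under these conditions; 0.46% (about 300) showed 50% or more at least once.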
C: 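Protease assay of ClpP1P2, read by the AMC dye that it sets free. Target: ClpP1P2, Mycobacterium tuberculosis (UniProt P9WPC5 and UniProt P9WPC3). Tested at 50 µM. Higher reads as stronger inhibition, judged from the few compounds that gave an IC50. Most other retested compounds had strongly negative values. Size under these conditions: about 69,000 compounds, about 10 of them at 50% or above in at least one test.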
D: 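Whole-parasite assay of Trypanosoma brucei over 72 hours; the read-out is not stated. Concentration: 30 µM. The record gives no direction; compounds that gave an IC50 in retests scored well above the rest, so higher reads as stronger inhibition. Values scatter widely below zero; nearly all retest evidence comes from the higher of the two concentrations used. Size under these conditions: about 64,000 compounds, about 940 of them at 50% or above in at least one test.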

The filed quantity is “Percent Effect” (%). The controls that fix the scale are not given in the record; negative values are as filed. The compounds are a random part of those screened.

{"compound": "COCCN(C)C(=O)Nc1ccn(-c2cccc(C(F)(F)F)c2)n1", "A": 22.72, "B": -24.04, "C": 0.7638, "D": -35.61}
{"compound": "O=C(c1ccnnc1)N1CC[C@H]2[C@H]1CCN2S(=O)(=O)C1CC1", "B": -20.44, "C": -6.211}
{"compound": "CCOCC(O)CN1CCN(C(=O)c2ccccc2F)CC1", "stereo": "centres undefined", "A": 25.28, "B": -8.715, "C": -16.49}
{"compound": "O=C(O)C(F)(F)F.O=C(O)C(F)(F)F.[H][C@@]12CCCO[C@]1([H])[C@H](N(C)Cc1ccco1)CN2Cc1cnn(C)c1", "A": 20.39, "D": -22.25}
{"compound": "O=C(O)c1ccc(S(=O)(=O)Nc2ccccc2F)c(F)c1", "A": 15.02, "B": -30.66, "C": -5.969, "D": -3.513}
{"compound": "Cc1ccc(-c2nc(CN(C)C3CCS(=O)(=O)C3)cs2)o1", "stereo": "centres undefined", "A": 23.95, "B": 3.178, "C": 2.285, "D": -22.43}
{"compound": "COc1ccc(C)cc1CC(=O)NC(CC(=O)O)c1ccc(F)cc1", "stereo": "centres undefined", "A": 17.06, "B": -23.56, "C": 10.97, "D": -3.509}
{"compound": "CS(=O)(=O)c1cc(S(N)(=O)=O)ccc1NCC1CCCO1", "stereo": "centres undefined", "A": -2.088, "B": 11.51, "C": 2.979, "D": -50.17}
{"compound": "Cc1ccc(N2CCCC(c3[nH]ncc3Cc3ccccc3)C2)nn1", "stereo": "centres undefined", "A": -8.802, "B": -18.02, "C": 0.8168, "D": 42.86}
{"compound": "COc1cc(CNCCn2ccnc2)cc2c1OCO2.Cl", "A": 27.41, "D": 6.439}
{"compound": "COc1ccc(Oc2ncccc2C(F)(F)F)cc1CN1CCCC1", "A": -95.99, "B": -15.25, "C": -2.553}
{"compound": "Cc1cccc(CN2CC[C@H]3OCC[C@@]3(C(=O)N3CCOCC3)C2)n1", "B": -6.399, "C": 14.03}
{"compound": "Cc1cccc(C(=O)N2CCCC2)c1NCC(=O)NC(C)(C#N)C1CC1", "stereo": "centres undefined", "A": -10.36, "B": 13.2, "C": 4.99, "D": -114.1}
{"compound": "Cc1cc(N2CCN(C(=O)c3cc(Cl)c[nH]3)CC2)nc(C)n1", "A": -16.17, "B": -5.748, "C": -11.18, "D": -21.87}
{"compound": "Cc1cc(C(=O)NCc2ccccn2)no1", "A": 12.91, "B": -9.271, "C": 7.951, "D": -20.65}
{"compound": "Cc1cc(C(=O)NC2(C#N)CCSCC2)n(C)n1", "A": 15, "B": -39.52, "C": -0.8254, "D": -23.97}
{"compound": "Cn1cccc1C(O)CNC(=O)c1cccc(Cl)c1", "stereo": "centres undefined", "A": -12.33, "B": -2.177, "C": -7.729, "D": -6.904}

For reference, 2 entries once more:

Compound	A	B	C	D
Cn1cccc1C(O)CNC(=O)c1cccc(Cl)c1 (centres undefined)	-12.33%	-2.177%	-7.729%	-6.904%
Cc1cccc(C(=O)N2CCCC2)c1NCC(=O)NC(C)(C#N)C1CC1 (centres undefined)	-10.36%	13.2%	4.99%	-114.1%

The values are deposited in ChEMBL (CHEMBL3988442, “University of Dundee, Small-Polar-MMV Screening Library” (2021)).